Laboratory results taken from the supplement of paper PMC12823440, “Inhibitors supercharge kinase turnover through native proteolytic circuits” (Nature, 2025).
The list shows a part of the results. Hit calls seldom repeat between salt and free forms of one compound.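 Kinases, fused to nanoluciferase, were expressed in K562 cells; luminescence was measured every 4 h from 2 to 18 h as percent of control (DMSO = 100%, positive control = 0%). A time point is decreased if signal falls significantly (2 sigma). Hits were called by the authors by a rule that is not shown; the count of time points alone does not decide it.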

The chains behind the UniProt entries cited, without tags or fusion partners. Where a name states a change or a piece, a line headed by the entry shows the natural chain unless it says otherwise.
UniProt P07949, whole entry, looked up: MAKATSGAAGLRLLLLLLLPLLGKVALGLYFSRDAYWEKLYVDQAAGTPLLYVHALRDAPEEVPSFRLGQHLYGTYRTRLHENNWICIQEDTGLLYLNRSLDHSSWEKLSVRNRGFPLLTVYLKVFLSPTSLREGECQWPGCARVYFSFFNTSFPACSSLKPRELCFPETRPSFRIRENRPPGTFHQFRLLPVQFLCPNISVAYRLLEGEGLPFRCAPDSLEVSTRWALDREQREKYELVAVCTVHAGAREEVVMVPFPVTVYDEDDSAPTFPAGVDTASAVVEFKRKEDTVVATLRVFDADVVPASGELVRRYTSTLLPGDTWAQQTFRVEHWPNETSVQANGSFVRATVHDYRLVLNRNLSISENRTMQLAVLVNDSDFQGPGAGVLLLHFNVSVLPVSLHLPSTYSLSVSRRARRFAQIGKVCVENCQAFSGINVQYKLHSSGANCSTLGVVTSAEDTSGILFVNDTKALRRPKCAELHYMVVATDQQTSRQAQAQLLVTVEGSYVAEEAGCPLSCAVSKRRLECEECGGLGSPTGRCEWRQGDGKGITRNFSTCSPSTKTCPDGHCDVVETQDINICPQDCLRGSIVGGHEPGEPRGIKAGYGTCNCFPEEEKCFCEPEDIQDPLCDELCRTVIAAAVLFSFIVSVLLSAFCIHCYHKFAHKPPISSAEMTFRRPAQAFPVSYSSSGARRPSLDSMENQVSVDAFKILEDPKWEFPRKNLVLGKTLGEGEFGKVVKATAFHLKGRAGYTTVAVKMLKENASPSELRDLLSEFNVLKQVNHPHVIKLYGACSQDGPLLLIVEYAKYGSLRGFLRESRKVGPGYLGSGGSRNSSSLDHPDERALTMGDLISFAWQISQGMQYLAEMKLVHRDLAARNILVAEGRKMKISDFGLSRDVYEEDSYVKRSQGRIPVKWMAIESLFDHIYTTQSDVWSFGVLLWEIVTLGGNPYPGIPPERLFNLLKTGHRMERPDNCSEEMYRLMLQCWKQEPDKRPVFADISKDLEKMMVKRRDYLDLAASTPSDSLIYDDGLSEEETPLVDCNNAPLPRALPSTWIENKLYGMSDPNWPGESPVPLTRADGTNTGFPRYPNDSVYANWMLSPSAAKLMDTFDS
UniProt Q13546: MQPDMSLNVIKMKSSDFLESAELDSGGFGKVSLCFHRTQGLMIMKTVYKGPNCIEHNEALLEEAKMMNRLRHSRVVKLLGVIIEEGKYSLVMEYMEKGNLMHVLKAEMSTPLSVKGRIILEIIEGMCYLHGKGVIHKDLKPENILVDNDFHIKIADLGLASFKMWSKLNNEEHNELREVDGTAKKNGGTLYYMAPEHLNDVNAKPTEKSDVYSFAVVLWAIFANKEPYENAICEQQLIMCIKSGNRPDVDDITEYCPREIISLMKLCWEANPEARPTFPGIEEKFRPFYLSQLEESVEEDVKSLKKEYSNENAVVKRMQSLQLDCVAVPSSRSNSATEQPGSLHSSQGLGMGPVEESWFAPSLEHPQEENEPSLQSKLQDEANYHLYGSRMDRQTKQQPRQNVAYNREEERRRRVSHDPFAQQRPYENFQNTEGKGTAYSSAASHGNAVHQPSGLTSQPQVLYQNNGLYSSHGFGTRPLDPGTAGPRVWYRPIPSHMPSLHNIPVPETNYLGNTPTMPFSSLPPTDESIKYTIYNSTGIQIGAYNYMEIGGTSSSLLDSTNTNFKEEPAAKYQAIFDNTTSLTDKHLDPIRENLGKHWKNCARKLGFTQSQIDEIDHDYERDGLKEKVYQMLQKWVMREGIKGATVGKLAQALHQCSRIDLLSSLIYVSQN
UniProt Q01974, whole entry: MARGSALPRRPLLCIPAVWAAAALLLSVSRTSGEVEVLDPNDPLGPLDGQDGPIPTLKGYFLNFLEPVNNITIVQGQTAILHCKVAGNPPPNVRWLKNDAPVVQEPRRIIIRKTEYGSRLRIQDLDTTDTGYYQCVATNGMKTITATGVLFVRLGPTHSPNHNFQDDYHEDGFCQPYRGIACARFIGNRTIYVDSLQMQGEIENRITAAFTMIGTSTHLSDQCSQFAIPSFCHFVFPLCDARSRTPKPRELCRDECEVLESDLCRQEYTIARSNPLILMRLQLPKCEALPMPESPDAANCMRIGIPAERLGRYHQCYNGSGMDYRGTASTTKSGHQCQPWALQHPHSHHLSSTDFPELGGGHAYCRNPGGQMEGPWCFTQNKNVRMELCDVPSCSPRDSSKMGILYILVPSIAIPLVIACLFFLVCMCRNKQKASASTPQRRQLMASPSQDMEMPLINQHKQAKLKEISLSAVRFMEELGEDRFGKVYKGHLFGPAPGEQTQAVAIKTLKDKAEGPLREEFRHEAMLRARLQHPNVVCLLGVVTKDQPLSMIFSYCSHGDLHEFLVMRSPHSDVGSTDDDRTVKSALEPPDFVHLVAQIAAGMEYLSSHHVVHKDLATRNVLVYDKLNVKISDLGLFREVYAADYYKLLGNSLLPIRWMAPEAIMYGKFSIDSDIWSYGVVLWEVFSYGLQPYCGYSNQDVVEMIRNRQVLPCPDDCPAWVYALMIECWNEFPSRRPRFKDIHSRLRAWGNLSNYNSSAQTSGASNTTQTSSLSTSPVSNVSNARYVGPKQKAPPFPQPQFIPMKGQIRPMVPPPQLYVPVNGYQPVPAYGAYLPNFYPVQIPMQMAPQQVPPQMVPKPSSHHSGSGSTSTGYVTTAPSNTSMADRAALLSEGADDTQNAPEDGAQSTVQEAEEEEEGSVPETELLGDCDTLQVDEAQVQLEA
UniProt Q15418, whole entry: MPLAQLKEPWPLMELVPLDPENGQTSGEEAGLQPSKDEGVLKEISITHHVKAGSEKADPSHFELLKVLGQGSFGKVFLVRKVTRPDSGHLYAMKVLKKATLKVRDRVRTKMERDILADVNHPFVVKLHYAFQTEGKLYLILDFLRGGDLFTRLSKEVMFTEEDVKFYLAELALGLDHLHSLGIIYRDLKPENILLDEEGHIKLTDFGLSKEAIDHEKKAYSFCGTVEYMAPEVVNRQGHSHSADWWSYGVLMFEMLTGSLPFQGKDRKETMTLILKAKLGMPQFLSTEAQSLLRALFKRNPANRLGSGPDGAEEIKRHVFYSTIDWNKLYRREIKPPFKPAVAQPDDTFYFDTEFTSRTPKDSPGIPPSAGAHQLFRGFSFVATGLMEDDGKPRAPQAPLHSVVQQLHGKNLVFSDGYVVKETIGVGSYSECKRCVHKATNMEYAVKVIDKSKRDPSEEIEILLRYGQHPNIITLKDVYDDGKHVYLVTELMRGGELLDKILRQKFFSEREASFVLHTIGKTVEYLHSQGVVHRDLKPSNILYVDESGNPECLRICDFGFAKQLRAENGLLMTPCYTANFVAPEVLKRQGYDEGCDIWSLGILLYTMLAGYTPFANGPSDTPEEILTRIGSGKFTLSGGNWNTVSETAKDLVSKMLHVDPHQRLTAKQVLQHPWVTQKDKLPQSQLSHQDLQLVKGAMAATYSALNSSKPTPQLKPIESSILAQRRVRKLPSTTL
UniProt Q9Y6E0: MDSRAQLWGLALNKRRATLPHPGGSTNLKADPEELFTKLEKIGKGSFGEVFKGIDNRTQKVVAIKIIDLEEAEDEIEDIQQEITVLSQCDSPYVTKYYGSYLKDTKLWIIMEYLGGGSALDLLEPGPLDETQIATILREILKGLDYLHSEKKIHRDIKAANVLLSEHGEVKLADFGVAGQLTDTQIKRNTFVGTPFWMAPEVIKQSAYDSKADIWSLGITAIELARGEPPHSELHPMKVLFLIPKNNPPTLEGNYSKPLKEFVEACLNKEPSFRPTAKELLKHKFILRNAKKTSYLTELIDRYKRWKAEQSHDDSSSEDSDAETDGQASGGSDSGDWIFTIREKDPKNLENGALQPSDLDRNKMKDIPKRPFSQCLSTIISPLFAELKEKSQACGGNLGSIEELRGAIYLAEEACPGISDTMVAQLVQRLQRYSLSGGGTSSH
UniProt P29597: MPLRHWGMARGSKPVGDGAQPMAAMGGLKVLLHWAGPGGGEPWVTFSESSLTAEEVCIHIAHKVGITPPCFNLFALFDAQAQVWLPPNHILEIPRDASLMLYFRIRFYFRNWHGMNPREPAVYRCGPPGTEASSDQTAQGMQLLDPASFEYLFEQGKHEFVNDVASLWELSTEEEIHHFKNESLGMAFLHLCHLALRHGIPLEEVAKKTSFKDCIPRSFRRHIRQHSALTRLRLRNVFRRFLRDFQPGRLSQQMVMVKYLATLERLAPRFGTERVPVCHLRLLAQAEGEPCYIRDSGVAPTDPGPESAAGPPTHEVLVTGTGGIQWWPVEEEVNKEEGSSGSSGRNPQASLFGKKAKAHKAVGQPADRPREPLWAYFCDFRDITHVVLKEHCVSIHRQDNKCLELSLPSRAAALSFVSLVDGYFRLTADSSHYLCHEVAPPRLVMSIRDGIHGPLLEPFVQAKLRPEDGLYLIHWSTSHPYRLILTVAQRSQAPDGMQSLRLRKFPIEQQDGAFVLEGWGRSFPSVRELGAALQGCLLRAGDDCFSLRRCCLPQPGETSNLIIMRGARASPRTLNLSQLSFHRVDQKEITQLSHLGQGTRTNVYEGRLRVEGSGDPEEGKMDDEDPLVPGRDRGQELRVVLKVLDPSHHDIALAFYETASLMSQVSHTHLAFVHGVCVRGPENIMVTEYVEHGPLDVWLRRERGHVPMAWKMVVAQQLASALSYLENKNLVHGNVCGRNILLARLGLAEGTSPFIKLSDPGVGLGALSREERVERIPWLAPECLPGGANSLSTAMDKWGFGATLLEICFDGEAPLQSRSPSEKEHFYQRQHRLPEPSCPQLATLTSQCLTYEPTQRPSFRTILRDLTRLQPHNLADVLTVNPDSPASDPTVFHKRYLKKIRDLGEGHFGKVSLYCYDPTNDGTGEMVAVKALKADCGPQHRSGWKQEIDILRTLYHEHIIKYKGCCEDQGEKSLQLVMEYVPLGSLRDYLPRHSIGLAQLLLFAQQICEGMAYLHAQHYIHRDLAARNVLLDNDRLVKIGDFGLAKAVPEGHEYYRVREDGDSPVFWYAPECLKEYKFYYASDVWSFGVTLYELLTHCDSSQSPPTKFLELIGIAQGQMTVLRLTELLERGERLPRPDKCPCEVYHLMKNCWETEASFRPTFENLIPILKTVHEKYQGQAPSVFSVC
UniProt Q6PHR2: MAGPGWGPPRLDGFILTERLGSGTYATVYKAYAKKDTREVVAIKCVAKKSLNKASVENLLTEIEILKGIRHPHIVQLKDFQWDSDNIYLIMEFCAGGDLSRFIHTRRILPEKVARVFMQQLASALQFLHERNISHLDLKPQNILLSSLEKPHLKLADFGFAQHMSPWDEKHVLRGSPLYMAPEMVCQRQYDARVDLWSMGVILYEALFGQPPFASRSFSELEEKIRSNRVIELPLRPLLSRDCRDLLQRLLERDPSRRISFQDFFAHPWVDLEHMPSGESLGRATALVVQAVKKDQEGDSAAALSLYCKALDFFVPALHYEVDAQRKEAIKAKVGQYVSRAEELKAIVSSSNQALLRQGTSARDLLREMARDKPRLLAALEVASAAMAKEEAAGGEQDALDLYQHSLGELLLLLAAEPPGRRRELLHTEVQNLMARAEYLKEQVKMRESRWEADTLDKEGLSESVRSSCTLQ
UniProt P31749: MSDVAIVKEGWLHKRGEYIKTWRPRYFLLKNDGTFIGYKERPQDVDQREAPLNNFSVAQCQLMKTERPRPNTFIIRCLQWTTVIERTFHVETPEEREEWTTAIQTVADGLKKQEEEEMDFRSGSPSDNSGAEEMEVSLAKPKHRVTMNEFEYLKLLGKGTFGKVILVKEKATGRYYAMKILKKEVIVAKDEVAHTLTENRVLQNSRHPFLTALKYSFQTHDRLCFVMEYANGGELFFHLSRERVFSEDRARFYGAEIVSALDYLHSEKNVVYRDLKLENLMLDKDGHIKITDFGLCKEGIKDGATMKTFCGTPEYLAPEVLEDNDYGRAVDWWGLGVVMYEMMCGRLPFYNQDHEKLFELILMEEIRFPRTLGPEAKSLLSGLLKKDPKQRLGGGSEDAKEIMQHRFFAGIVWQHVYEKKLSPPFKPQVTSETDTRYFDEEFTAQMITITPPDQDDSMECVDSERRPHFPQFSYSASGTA
UniProt Q15208: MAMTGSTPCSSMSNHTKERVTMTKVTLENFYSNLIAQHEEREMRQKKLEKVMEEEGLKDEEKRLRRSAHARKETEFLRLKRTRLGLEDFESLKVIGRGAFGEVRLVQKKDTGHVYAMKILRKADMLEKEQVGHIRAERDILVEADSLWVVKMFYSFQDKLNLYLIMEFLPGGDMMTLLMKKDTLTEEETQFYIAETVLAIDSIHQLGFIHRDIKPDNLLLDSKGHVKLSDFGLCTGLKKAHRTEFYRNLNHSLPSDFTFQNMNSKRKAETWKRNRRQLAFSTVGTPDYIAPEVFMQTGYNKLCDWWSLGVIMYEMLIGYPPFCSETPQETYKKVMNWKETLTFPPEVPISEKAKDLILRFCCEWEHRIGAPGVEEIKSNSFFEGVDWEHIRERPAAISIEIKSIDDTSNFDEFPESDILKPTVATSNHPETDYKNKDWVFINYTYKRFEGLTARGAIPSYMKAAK

Key:
Conditions in all cases: K562; 2-18 h
RET = RET (UniProt P07949); test: kinase-Nluc reporter destabilization hit call (1 = scored as downregulated) (binary); higher = compound decreases kinase abundance
[1] = target: RET_M918T (clone: RET_mut) (UniProt P07949); test: as above
RIOK1 = RIOK1 (UniProt Q9BRS2); test: as above
RIPK1 = RIPK1 (UniProt Q13546); test: as above
RIPK2 = RIPK2 (UniProt O43353); test: as above
ROR2 = ROR2 (UniProt Q01974); test: as above
RPS6KA1 = RPS6KA1 (UniProt Q15418); test: as above
SPHK1 = SPHK1 (UniProt Q9NYA1); test: as above
SRC = SRC (UniProt P12931); test: as above
STK24 = STK24 (UniProt Q9Y6E0); test: as above
SYK = SYK (UniProt P43405); test: as above
TEC = TEC (UniProt P42680); test: as above
TYK2 = TYK2 (UniProt P29597); test: as above
ULK3 = ULK3 (UniProt Q6PHR2); test: as above
YES1 = YES1 (UniProt P07947); test: as above
ZAK = ZAK (UniProt Q9NYL2); test: as above
ZAP70 = ZAP70 (UniProt P43403); test: as above
ABL1 = ABL1 (UniProt P00519); test: number of time points (of 5) at which kinase-Nluc abundance scored as decreased, DMSO-normalised (count); higher = more persistent destabilization
AKT1 = AKT1 (UniProt P31749); test: as above
STK38 = STK38 (UniProt Q15208); test: kinase-Nluc reporter destabilization hit call (1 = scored as downregulated) (binary); higher = compound decreases kinase abundance

Compound | kinase-Nluc reporter destabilization hit call (RET) | kinase-Nluc reporter destabilization hit call [1] | kinase-Nluc reporter destabilization hit call (RIOK1) | kinase-Nluc reporter destabilization hit call (RIPK1) | kinase-Nluc reporter destabilization hit call (RIPK2) | kinase-Nluc reporter destabilization hit call (ROR2) | kinase-Nluc reporter destabilization hit call (RPS6KA1) | kinase-Nluc reporter destabilization hit call (SPHK1) | kinase-Nluc reporter destabilization hit call (SRC) | kinase-Nluc reporter destabilization hit call (STK24) | kinase-Nluc reporter destabilization hit call (SYK) | kinase-Nluc reporter destabilization hit call (TEC) | kinase-Nluc reporter destabilization hit call (TYK2) | kinase-Nluc reporter destabilization hit call (ULK3) | kinase-Nluc reporter destabilization hit call (YES1) | kinase-Nluc reporter destabilization hit call (ZAK) | kinase-Nluc reporter destabilization hit call (ZAP70) | number of time points (ABL1) | number of time points (AKT1) | kinase-Nluc reporter destabilization hit call (STK38)
CC1(C)CN(C(=O)c2ccc(-c3cccc4nc(NC(=O)C5CC5)nn34)cc2)C1 [Solcitinib] (10 µM) | inactive: 0 | inactive: 0 | inactive: 0 | inactive: 0 | inactive: 0 | inactive: 0 | inactive: 0 | inactive: 0 | inactive: 0 | inactive: 0 | inactive: 0 | inactive: 0 | inactive: 0 | inactive: 0 | inactive: 0 | inactive: 0 | inactive: 0 | 0 | 0 | 
Nc1ccc(C(=O)Nc2cccc(-c3nc(N4CCOCC4)c4oc5ncccc5c4n3)c2)cn1 (10 µM) | inactive: 0 | inactive: 0 | inactive: 0 | inactive: 0 | inactive: 0 | inactive: 0 | inactive: 0 | inactive: 0 | inactive: 0 | inactive: 0 | inactive: 0 | inactive: 0 | inactive: 0 | inactive: 0 | inactive: 0 | inactive: 0 | inactive: 0 | 0 | 0 | inactive: 0
CO[C@]1(C(=O)N[C@@H](C)c2ccc(-n3cc(F)cn3)nc2)CC[C@H](c2nc(C)cc(Nc3cc(C)[nH]n3)n2)CC1 [Pralsetinib] (10 µM) | inactive: 0 | inactive: 0 | inactive: 0 | inactive: 0 | inactive: 0 | inactive: 0 | inactive: 0 | inactive: 0 | inactive: 0 | inactive: 0 | inactive: 0 | inactive: 0 | inactive: 0 | inactive: 0 | inactive: 0 | inactive: 0 | inactive: 0 | 0 | 0 | inactive: 0
Cc1cnc(Nc2ccc(F)cc2Cl)nc1-c1c[nH]c(C(=O)N[C@H](CO)c2cccc(Cl)c2)c1 (10 µM) | inactive: 0 | inactive: 0 | inactive: 0 | inactive: 0 | inactive: 0 | inactive: 0 | inactive: 0 | inactive: 0 | inactive: 0 | inactive: 0 |  | inactive: 0 | inactive: 0 | inactive: 0 | inactive: 0 | inactive: 0 | inactive: 0 | 0 | 0 | inactive: 0
Fc1ccc(-c2nc3n(c2-c2ccncc2)CCS3)cc1 (10 µM) | inactive: 0 | inactive: 0 | inactive: 0 | inactive: 0 | inactive: 0 | inactive: 0 | inactive: 0 | inactive: 0 | inactive: 0 | inactive: 0 | inactive: 0 | inactive: 0 | inactive: 0 | inactive: 0 | inactive: 0 | inactive: 0 | inactive: 0 | 0 | 0 | inactive: 0
CN(C[C@@H]1COCCO1)S(=O)(=O)Nc1ccc2ccc3ncc(-c4cnn(C)c4)cc3c(=O)c2c1 (2.5 µM) |  |  | inactive: 0 | inactive: 0 | inactive: 0 | inactive: 0 | inactive: 0 | inactive: 0 | inactive: 0 | inactive: 0 | inactive: 0 | inactive: 0 | inactive: 0 | inactive: 0 | inactive: 0 | inactive: 0 | inactive: 0 | 0 | 0 | inactive: 0
Cn1cc(C2=C(c3ccc(Cl)cc3Cl)C(=O)NC2=O)c2ccccc21 (10 µM) | inactive: 0 | inactive: 0 | inactive: 0 | inactive: 0 | inactive: 0 | inactive: 0 | inactive: 0 | inactive: 0 | inactive: 0 | inactive: 0 | inactive: 0 | inactive: 0 | inactive: 0 | inactive: 0 | inactive: 0 | inactive: 0 | inactive: 0 | 0 | 0 | inactive: 0
COc1cc2nnc(C(N)=O)c(Nc3ccc(C)cc3F)c2cc1N1CCN(CCO)CC1 (2.5 µM) | inactive: 0 | inactive: 0 | inactive: 0 | inactive: 0 | inactive: 0 | inactive: 0 | inactive: 0 | inactive: 0 | inactive: 0 | inactive: 0 | inactive: 0 | inactive: 0 | inactive: 0 | inactive: 0 | inactive: 0 | inactive: 0 | inactive: 0 | 0 | 0 | inactive: 0
O=C(C#Cc1ccccc1)c1cccc([N+](=O)[O-])c1 (10 µM) | inactive: 0 | inactive: 0 | inactive: 0 | inactive: 0 | inactive: 0 | inactive: 0 | inactive: 0 | inactive: 0 | inactive: 0 | inactive: 0 | inactive: 0 | inactive: 0 | inactive: 0 | inactive: 0 | inactive: 0 | inactive: 0 | inactive: 0 | 0 | 0 | inactive: 0
N#Cc1cc(-c2ccnc(Nc3ccc(N4CCOCC4)cc3)n2)ccc1OC1CCOCC1 (10 µM) | inactive: 0 | inactive: 0 | inactive: 0 | inactive: 0 | inactive: 0 | inactive: 0 | inactive: 0 | inactive: 0 | inactive: 0 | inactive: 0 | inactive: 0 | inactive: 0 | inactive: 0 | inactive: 0 | inactive: 0 | inactive: 0 | inactive: 0 | 0 | 0 | inactive: 0
CCC(F)(F)c1cc(N2CCC(S(C)(=O)=O)CC2)nc2sc(C(N)=O)c(N)c12 (10 µM) | inactive: 0 | inactive: 0 | inactive: 0 | inactive: 0 | inactive: 0 | inactive: 0 | inactive: 0 | inactive: 0 | inactive: 0 | inactive: 0 | inactive: 0 | inactive: 0 | inactive: 0 | inactive: 0 | inactive: 0 | inactive: 0 | inactive: 0 | 0 | 0 | inactive: 0
O=C1NC(=O)C(Cc2c[nH]c3c(Cl)cccc23)N1 (stereo not given) [Necroptosis-IN-1] (10 µM) | inactive: 0 | inactive: 0 | inactive: 0 | inactive: 0 | inactive: 0 | inactive: 0 | inactive: 0 | inactive: 0 | inactive: 0 | inactive: 0 | inactive: 0 | inactive: 0 | inactive: 0 | inactive: 0 | inactive: 0 | inactive: 0 | inactive: 0 | 0 | 0 | inactive: 0
O=c1cc(N2CCOCC2)oc2c(-c3cccc4c3sc3ccccc34)cccc12 (10 µM) | inactive: 0 | inactive: 0 | inactive: 0 | inactive: 0 | inactive: 0 | inactive: 0 | inactive: 0 | inactive: 0 | inactive: 0 | inactive: 0 | inactive: 0 | inactive: 0 | inactive: 0 | inactive: 0 | inactive: 0 | inactive: 0 | inactive: 0 | 0 | 0 | inactive: 0
COc1cc2c(cc1OC)[C@@H]1C(=O)c3ccc4c(c3O[C@@H]1CO2)C=CC(C)(C)O4 [Deguelin] (10 µM) | inactive: 0 | inactive: 0 | inactive: 0 | inactive: 0 | inactive: 0 | inactive: 0 | inactive: 0 | inactive: 0 | inactive: 0 | inactive: 0 | inactive: 0 | inactive: 0 | inactive: 0 | inactive: 0 | inactive: 0 | inactive: 0 | inactive: 0 | 0 | 0 | inactive: 0
O=S(=O)(c1ccc(O)cc1O)N1Cc2cc(O)cc(O)c2C1 (10 µM) | inactive: 0 | inactive: 0 | inactive: 0 | inactive: 0 | inactive: 0 | inactive: 0 | inactive: 0 | inactive: 0 | inactive: 0 | inactive: 0 | inactive: 0 | inactive: 0 | inactive: 0 | inactive: 0 | inactive: 0 | inactive: 0 | inactive: 0 | 0 | 0 | inactive: 0
O=C(COc1ccc(Cl)cc1)NC1CCC(NC(=O)COc2ccc(Cl)cc2)CC1 (stereo not drawn) [ISRIB (trans-isomer)] (10 µM) | inactive: 0 | inactive: 0 | inactive: 0 | inactive: 0 | inactive: 0 | inactive: 0 | inactive: 0 | inactive: 0 | inactive: 0 | inactive: 0 | inactive: 0 | inactive: 0 | inactive: 0 | inactive: 0 | inactive: 0 | inactive: 0 | inactive: 0 | 0 | 0 | inactive: 0
NC(=O)c1cnc(N[C@@H]2CCCC[C@@H]2N)nc1Nc1cccc(-n2nccn2)c1 (2.5 µM) | inactive: 0 | inactive: 0 | inactive: 0 | inactive: 0 | inactive: 0 | inactive: 0 | inactive: 0 | inactive: 0 | inactive: 0 | inactive: 0 |  | inactive: 0 | inactive: 0 | inactive: 0 | inactive: 0 | inactive: 0 | inactive: 0 | 0 | 0 | inactive: 0
